From PubChem BioAssay AID1487 (National Center for Advancing Translational Sciences (NCATS), 2009)
Some of the results follow. These are further read-outs of the screen, such as a control signal, another cell line or another target. No call is given for them. Compounds called inactive in the main read-out are mostly missing here. The note in brackets gives the kind of curve behind each potency; many fits are weak.

Test: qHTS Assay for Modulators of Lamin A Splicing
Settings: HeLa LMNA splicing GFP/RFP minigene ratio, 48 h
Source text: NCGC Assay Overview: Hutchinson-Gilford Progeria Syndrome (HGPS) is a pediatric premature aging disease caused by a spontaneous mutation in the lamin A/C (LMNA) gene. The mutation activates a cryptic splice site in the LMNA pre-mRNA which results in production of a pre-lamin A protein that cannot be processed properly. The mutant protein accumulates in the nucleus and negatively affects numerous cellular functions. Correction of the splicing defect in HGPS patient cells using a targeted oligonucleotide (exo11) leads to reversal of the cellular disease phenotypes. To identify small molecule modulators of aberrant LMNA splicing, a homogenous assay was constructed in HeLa cells that used a GFP containing minigene to report on correction of aberrant splicing in lamin A and a RFP (DsRed2) to report on cell viability, uniformity and nonspecific effects on the assay signal. This assay was adapted to laser-scanning microplate cytometry (Acumen, TTP Labtech) where miniaturization of the assay to a 1,536-well plate format was possible. References: Bowen, W. P.; Wylie, P. G. Application of Laser-Scanning Fluorescence Microplate Cytometry in High Content Screening. Assay Drug Dev Technol 2006;4:209-221. Scaffidi P, Misteli T. Reversal of the cellular phenotype in the premature aging disease Hutchinson-Gilford progeria syndrome. Nat.
NCGC Assay Protocol Summary: Reagents/Controls: Stable clones expressing DsRed2 and lamin A-EGFP were generated by Cell and Molecular Technologies in S3 HeLa cells. HeLa cells were prepared for the assay when they were 70-90% confluent. The cells were counted and resuspended in Opti-MEM I (no phenol red; Gibco), 2% FBS, 1% penicillin/ streptomycin (Gibco) at concentration of 120 cells/uL concentration. The suspension was passed through a Falcon basket filter with pore size 40um (Beckton Dickson). Control titrations: column […] 1536-well plate contained a sixteen point titration (1:2 dilutions) in duplicate of ancitabine (Sigma: A8598) beginning at 40 uM final concentration. Column 2 contained a sixteen point titration (1:2 dilutions) of cycloheximide beginning at 1.4 mM final concentration. Column 3 contained ancitabine at 40 uM and column 4 contained was the vehicle control (0.5% DMSO final concentration). Assay Steps: 5 uL of HeLa cells were plated in Aurora LoBase black clear bottom (cyclic-olefin polymer) 1536-well plates at a final density of 600 cells/well. Controls and library compounds were added with a 1536-well pin array using the Kalypsys pin-tool. The plates were then incubated for 48 hrs in a cell-culture incubator (37 °C; 5% CO2, 98% humidity). Following incubation the plates were read on the Acumen Explorer using the 488 nm laser. Data was collected on objects between 10 and 100 um in size. Cell objects were defined by a 15 um width x 10 um depth filter. The ratio of the total object intensity in PMT1 (500-530 nm emission; GFP) over PMT3 (575-640 nm emission; RFP) was calculated for analysis. Keywords: NIH Roadmap, MLSCN, MLI, MLSMR, qHTS, NCGC, lamin A, Progeria, RNA splicing.

[1] = measured here: GFP splicing reporter channel
[2] = measured here: RFP viability control channel

SMILES | AC50 [1] | AC50 [2]
CCC(C)NC(=O)c1ccc2c(c1)nc1n2CCCCC1 (stereo not given) | 0.126 µM [rising, full curve, poor fit] | –
CCN(CC)S(=O)(=O)c1cccc(-c2n[nH]c(=S)n2/N=C/c2ccc(Br)cc2)c1 | 17.8 µM [rising, partial curve, poor fit] | 35.5 µM [rising, single point]
Cc1cccc(-c2ncc(CN3CCC(CO)(CCCc4ccccc4)CC3)cn2)c1 | – | 12.6 µM [falling, single point]
CCOC(=O)CNC(=O)Nc1cc(C(=O)NCc2ccc(C(C)C)cc2)ccc1N1CCCC1 | – | 20 µM [falling, single point]
N#Cc1c(C(F)(F)F)cc(-c2ccco2)nc1SCc1ccccn1 | 4.47 µM [rising, partial curve, poor fit] | –
COc1ccc(Nc2ccc(Cl)cc2)c(C(=O)O)c1 | – | 14.1 µM [rising, partial curve]
CC(C)c1ccc(/C=C/C2=NNC(=O)CC2)cc1 | – | 2 µM [falling, full curve]
Cn1c(=O)c(=O)n(C)c2cc(S(=O)(=O)N3CCc4ccccc43)ccc21 | 22.4 µM [rising, single point] | –
O=C(Nc1cccc2ccccc12)c1ccc(OC(=S)N2CCOCC2)cc1 | 2.51 µM [rising, full curve, poor fit] | 11.2 µM [rising, partial curve]
Cc1ccc(S(=O)(=O)N(C)C)cc1NC(=S)NC12CC3CC(CC(C3)C1)C2 | – | 35.5 µM [rising, single point]
COc1ccc(-c2nc(=S)c3c([nH]2)Oc2ccc(C)cc2C3)cc1O | 10 µM [rising, partial curve, poor fit] | 10 µM [rising, partial curve, poor fit]
Cc1ccc(-n2nnc3c(=O)oc4ccccc4c32)cc1 | 25.1 µM [falling, single point] | –
CCCn1nc(C(=O)OCC(=O)Nc2cccc(OC)c2)c2ccccc2c1=O | 0.0158 µM [falling, full curve, poor fit] | 0.00891 µM [falling, full curve, poor fit]
O=C(c1cc(-c2cccs2)on1)N1CCN(c2ccccc2)CC1 | 35.5 µM [rising, single point] | 35.5 µM [rising, single point]
CCOC(=O)c1c2ccc(OCC(=O)N/N=C/c3ccc(C)cc3)cc2n2ccccc12 | – | 3.98 µM [falling, partial curve]
COCCN(C(=O)CSc1nnc(C)n1-c1ccccc1)c1c(N)n(Cc2ccccc2)c(=O)[nH]c1=O | – | 0.00794 µM [falling, full curve, poor fit]
Cn1c(=O)c2c(nc(Br)n2CCSc2ncccn2)n(C)c1=O | 3.16 µM [rising, partial curve] | –
COC/C=C/C1=CC2=CC(=O)C(C)(OC(=O)c3cnc4ccccc4n3)C(=O)C2=CN1CC1CC1 (stereo not given) | 1.26 µM [rising, single point] | 1.26 µM [rising, single point]

SMILES | AC50 [1] | AC50 [2]
Cc1ccc(NC(=O)CCCCCNS(=O)(=O)c2ccc(C)cc2)cc1 | 10 µM [rising, partial curve] | 12.6 µM [rising, partial curve]
Nc1ncnc2c1nc(Br)n2C1OC(CO)C(O)C1O (stereo not given) | 4.47 µM [rising, full curve] | 7.08 µM [rising, partial curve]
CCc1ccc2c(c1)c1nc(C)sc1n2CC | 20 µM [falling, single point] | –
Cc1[nH]nc2c1C(c1ccsc1)C1=C(CC(C)(C)CC1=O)N2 (stereo not given) | – | 1.58 µM [rising, full curve, poor fit]
CCN(CC)C(=S)Nc1ccc(Cl)c(Cl)c1 | 14.1 µM [rising, single point] | 15.8 µM [rising, partial curve]
C#CCOCCOCCOCCNc1nc(N2CCN(C(=O)[C@H](C(C)C)n3cc(CCO)nn3)CC2)nc(N2CCN(C(=O)[C@H](C(C)C)n3cc(CCO)nn3)CC2)n1 | 3.98 µM [falling, partial curve, poor fit] | –
O=C(Nc1ccc(Cl)c(Cl)c1)OCCNC(=O)c1ccncc1 | – | 0.158 µM [rising, full curve, poor fit]
CC(C)c1ccc(NC(=O)c2cc(S(=O)(=O)N3CCc4ccccc4C3)ccc2F)cc1 | 7.08 µM [rising, partial curve, poor fit] | –
Cc1ccc(CC(=O)Nc2cc([N+](=O)[O-])ccc2F)cc1 | 0.316 µM [falling, partial curve] | 0.251 µM [falling, full curve]
CC[n+]1c(/C=C2\C=C(C)CC(C)C2)sc2ccccc21 (stereo not given) | 11.2 µM [rising, single point] | –
Cc1ccc(Nc2nc(CSc3nnc(-c4cccnc4)n3-c3ccccc3F)cs2)cc1 | 11.2 µM [rising, partial curve] | 17.8 µM [rising, partial curve]
COc1c(C)cc(C(=O)C2CCCN(C(=O)Cn3ccc(C)n3)C2)cc1C (stereo not given) | 3.16 µM [rising, single point] | –
Oc1ccccc1-c1cc(C(F)(F)C(F)F)[nH]n1 | 11.2 µM [rising, partial curve] | 15.8 µM [rising, single point]
COc1ccc(CNc2ncnc3c2cnn3-c2ccc(Cl)cc2)cc1 | – | 0.501 µM [falling, full curve]
O=C(CSc1nc2ccc(Cl)cc2[nH]1)NCCc1ccccc1 | 14.1 µM [rising, single point] | 14.1 µM [rising, single point]
Brc1ccc(C2C3=C(Nc4ncnn42)c2ccccc2OC3c2ccncc2)cc1 (stereo not given) | 35.5 µM [rising, single point] | 31.6 µM [rising, single point]
Cc1ccc(CSC2=Nc3ccccc3C3=NC(CCC(=O)NCc4cccs4)C(=O)N23)c(C)c1 (stereo not given) | 10 µM [rising, partial curve, poor fit] | 10 µM [rising, partial curve, poor fit]
